The values that follow come from PMC3098871.

By UniProt entry, the sequences of proteins in these tests, tags left out. Residues count along the entry.
UniProt P84022, 2-425: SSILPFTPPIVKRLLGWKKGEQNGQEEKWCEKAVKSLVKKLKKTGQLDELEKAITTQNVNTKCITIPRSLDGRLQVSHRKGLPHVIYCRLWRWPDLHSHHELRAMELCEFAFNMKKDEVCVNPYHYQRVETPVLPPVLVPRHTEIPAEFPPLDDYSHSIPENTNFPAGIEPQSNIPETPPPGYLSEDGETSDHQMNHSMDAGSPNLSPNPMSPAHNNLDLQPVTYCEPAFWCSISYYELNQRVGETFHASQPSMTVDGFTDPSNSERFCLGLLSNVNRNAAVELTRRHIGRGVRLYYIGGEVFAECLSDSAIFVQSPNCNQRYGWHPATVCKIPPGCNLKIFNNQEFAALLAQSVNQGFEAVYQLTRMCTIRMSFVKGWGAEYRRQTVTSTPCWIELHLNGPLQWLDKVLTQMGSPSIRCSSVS

This data set deals with SMAD3 (A549 nuclear extract) (human (A549 cells)) (UniProt P84022). Nature of the data set: EMSA supershift. Particulars: poly(dI-dC) 0.25 mg/mL, anti-SMAD3 supershift, complexes partially abolished by unlabeled probe (40 and 200 ng); 20% glycerol, 5 mM MgCl2, 2.5 mM EDTA, 25 mM DTT, 200 mM NaCl, 50 mM Tris-HCl pH 7.6, 0.25 mg/mL poly(dI-dC), 20 min at room temperature; 6% native PAGE; protein in an extract; label: 5'-Cy5 on strand 1.

Construct, isoform or probe ends are uncertain for at least one entry. Results from cells or extracts need not show a direct contact.

For the sequence “GATTGCTGGTCGTTTGTTGTGGCT (double strand) [FOXA2 promoter probe (-42 to -19)]”, the binding result is “binds”.
